Data as given in patent US12215078B2, “Compositions and methods for protein labeling, modification, analysis, and targeted delivery” (University of Massachusetts, priority 2018, dated 2025).
Some of these results come from one statement about several compounds together.

Experiment: Thiol-click (click-to-release) kinetics followed by NMR
Type: physicochemical
Conditions: both thiol and amine addition (FIG. 2B-2C)
Procedure: 10 μmol (2 eq.) of A1 molecules was dissolved in single or mixed deuterated solvents (the volume of solvent depends on the solubility of A1). Then, 5 μmol (1 eq.) of 2-(2-Methoxyethoxy) ethanethiol or benzylamine was added to the solution. The reaction was immediately followed by NMR. The final concentration of A1 for each molecule is shown at the end of supplementary information case by case. The conversion of thiol or amine was calculated from the integration of corresponding peaks by NMR and plotted against reaction time.
Compound 1, 2, 3, 4, 5, 8, 11, 12, 13: 10 μmol (2 eq.) of molecule 1, 2, 3, 4, 5, 8, 11, 12, 13 was dissolved in 1000 μL of MeOH-d4. Then, 5 μmol (1 eq.) of thiol was added to the solution. The reaction was immediately followed by NMR.
Compound 6, 7, 9: 10 μmol (2 eq.) of molecule 6, 7, 9 was dissolved in 500 μL of MeOH-d4 and 500 μL of 50 mM pH 7.4 phosphate buffer. Then, 5 μmol (1 eq.) of thiol or amine was added to the solution. The reaction was immediately followed by NMR.
Compound 10: 10 μmol (2 eq.) of molecule 10 was dissolved in 1000 μL of DMSO-d6 and 500 μL of 50 mM pH 7.4 phosphate buffer. Then, 5 μmol (1 eq.) of thiol or amine was added to the solution. The reaction was immediately followed by NMR.
Compound 14, 15, 16: 10 μmol (2 eq.) of molecule 14, 15, 16 was dissolved in dissolved in 500 μL of MeOH-d4 and 500 μL of 50 mM pH 6.2 phosphate buffer. Then, 5 μmol (1 eq.) of thiol or amine was added to the solution. The reaction was immediately followed by NMR.

Structure (SMILES)	relative reactivity in thiol and amine addition reactions (in words)
CC[N+](CC)(CC)C/C(=C/c1ccccc1)C(=O)OC [Compound 11]	substantially lower
CC[N+](CC)(CC)C/C(=C/c1ccc(Br)cc1)C(=O)OC [Compound 13]	substantially lower
CC[N+](CC)(CC)C/C(=C/c1ccc(OC)cc1)C(=O)OC [Compound 12]	substantially lower
